In EP0304279B1, “Peptide determinant associated with immunity” (THE BOARD OF TRUSTEES OF THE LELAND STANFORD JUNIOR …, priority 1987, dated 1997):
At least one peptide structure holds a part that was inferred or is arguable (an end, a ring closure or a residue). Peptide text beside a SMILES is read from it.

Legend:
[1] = system: Antigen-specific T-cell clones from peripheral blood lymphocytes (PBL); assay: T-cell stimulation by synthetic acetylcholine receptor peptides in myasthenia gravis; type: cell-based; settings: in a number of myasthenics
mouse T-cells = assay: Proliferation assay (3H-thymidine incorporation) of MHC-restricted T-cells with PL/J splenic APC; type: cell-based; settings: mouse T-cells restricted by I-A(s)α A(u)β or I-A(u)α A(u)β
Procedure: Proliferation Assay: Proliferative responses were determined as described previously (Zamvil et al., Nature (1985) 317:355). 1x10^4 T-cells were cultured with 5x10^5 X-irradiated (3,000 rad) PL/J splenic APC in 0.2 ml of culture media in 96 well flat-bottomed microtiter plates (Falcon, 3072). Peptides were added to culture giving the final concentrations indicated. At 48 hours incubation, each well was pulsed with 1 µCi ^3H-thymidine and harvested 16 hours later. The mean c.p.m. thymidine incorporation was calulated for triplicate cultures. Standard deviations from replicate cultures were within 10% mean value.

Compound	T-cell stimulation [1]	T-cell stimulation (mouse T-cells)
CC[C@H](C)[C@H](NC(=O)[C@H](CC(=O)O)NC(=O)[C@H](CC(C)C)NC(=O)[C@H](Cc1ccc(O)cc1)NC(=O)[C@@H]1CCCN1C(=O)[C@@H](NC(=O)[C@@H](N)CC(=O)O)[C@@H](C)O)C(=O)N[C@H](C(=O)N[C@@H](Cc1ccc(O)cc1)C(=O)N[C@@H](Cc1c[nH]cn1)C(=O)N[C@@H](Cc1ccccc1)C(=O)N[C@H](C(=O)N[C@@H](CCSC)C(=O)N[C@@H](CCC(N)=O)C(=O)N[C@@H](CCCNC(=N)N)C(=O)N[C@@H](CC(C)C)C(=O)N1CCC[C@H]1C(=O)N[C@@H](CC(C)C)C(=O)O)C(C)C)[C@@H](C)O [AChR P215-232, D-T-P-Y-L-D-I-T-Y-H-F-V-M-Q-R-L-P-L]	particularly stimulatory	
CC(C)C[C@H](NC(=O)[C@H](Cc1ccc(O)cc1)NC(=O)[C@H](CCCCN)NC(=O)[C@H](CO)NC(=O)CNC(=O)[C@H](Cc1c[nH]cn1)NC(=O)[C@H](CCCNC(=N)N)NC(=O)[C@H](CCC(N)=O)NC(=O)[C@H](CO)NC(=O)[C@@H]1CCCN1)C(=O)N[C@@H](C)C(=O)N[C@H](C(=O)N[C@@H](C)C(=O)O)[C@@H](C)O [P5-17, P-S-Q-R-H-G-S-K-Y-L-A-T-A] (H-PSQRHGSKYLATA-OH)		stimulatory
